Laboratory results as given in PMC4381070.

Sequences of proteins named here, by UniProt entry; tags and fusion partners are left off.
UniProt Q9BQ69: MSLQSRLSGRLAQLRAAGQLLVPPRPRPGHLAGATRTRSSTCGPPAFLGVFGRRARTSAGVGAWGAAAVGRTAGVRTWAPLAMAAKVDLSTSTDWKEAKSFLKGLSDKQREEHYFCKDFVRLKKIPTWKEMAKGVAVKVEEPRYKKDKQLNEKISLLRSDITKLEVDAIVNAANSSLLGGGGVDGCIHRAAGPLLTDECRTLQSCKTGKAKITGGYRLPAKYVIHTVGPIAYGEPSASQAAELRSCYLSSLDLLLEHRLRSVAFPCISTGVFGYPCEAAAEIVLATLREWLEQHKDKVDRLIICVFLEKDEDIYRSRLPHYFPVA
UniProt Q9Y6K9: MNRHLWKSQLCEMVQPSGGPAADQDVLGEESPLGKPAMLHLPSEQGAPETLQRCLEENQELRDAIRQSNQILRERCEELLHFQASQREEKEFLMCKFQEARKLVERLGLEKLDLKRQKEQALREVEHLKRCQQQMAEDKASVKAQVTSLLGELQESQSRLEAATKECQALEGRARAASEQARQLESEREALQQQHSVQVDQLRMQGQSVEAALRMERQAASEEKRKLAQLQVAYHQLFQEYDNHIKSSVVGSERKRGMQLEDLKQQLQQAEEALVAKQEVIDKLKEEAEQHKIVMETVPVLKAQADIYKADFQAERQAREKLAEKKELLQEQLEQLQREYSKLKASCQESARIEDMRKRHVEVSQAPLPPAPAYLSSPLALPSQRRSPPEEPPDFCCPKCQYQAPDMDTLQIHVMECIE
UniProt P09874: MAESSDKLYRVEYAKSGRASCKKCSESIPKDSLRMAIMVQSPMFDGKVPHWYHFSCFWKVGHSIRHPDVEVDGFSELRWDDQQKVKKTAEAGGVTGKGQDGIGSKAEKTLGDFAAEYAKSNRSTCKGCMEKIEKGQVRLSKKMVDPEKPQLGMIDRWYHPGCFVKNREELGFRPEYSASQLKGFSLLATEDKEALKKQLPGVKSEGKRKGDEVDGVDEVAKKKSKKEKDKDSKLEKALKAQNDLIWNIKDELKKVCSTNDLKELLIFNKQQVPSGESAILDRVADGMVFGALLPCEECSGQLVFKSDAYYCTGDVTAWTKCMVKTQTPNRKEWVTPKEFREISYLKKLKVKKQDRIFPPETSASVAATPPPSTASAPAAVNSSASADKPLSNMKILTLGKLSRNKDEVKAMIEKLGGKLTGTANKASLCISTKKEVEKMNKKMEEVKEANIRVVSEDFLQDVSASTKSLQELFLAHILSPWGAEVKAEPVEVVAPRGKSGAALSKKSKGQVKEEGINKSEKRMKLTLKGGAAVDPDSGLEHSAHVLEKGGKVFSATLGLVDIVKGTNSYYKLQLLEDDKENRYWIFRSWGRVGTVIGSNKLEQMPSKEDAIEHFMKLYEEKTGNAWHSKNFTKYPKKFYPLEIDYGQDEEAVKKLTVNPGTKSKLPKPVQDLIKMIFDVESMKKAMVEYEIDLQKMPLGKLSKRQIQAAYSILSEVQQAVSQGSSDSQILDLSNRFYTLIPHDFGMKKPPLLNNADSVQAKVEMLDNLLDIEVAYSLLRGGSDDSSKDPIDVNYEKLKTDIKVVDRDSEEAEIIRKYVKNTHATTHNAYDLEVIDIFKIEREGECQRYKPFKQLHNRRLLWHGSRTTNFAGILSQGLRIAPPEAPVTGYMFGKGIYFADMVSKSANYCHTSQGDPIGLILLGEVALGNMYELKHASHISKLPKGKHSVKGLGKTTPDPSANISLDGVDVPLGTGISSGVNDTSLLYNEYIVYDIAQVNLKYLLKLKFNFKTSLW

Target: FLAG-LRP16 (wild-type Leukemia Related Protein 16) (UniProt Q9BQ69)
Test: affinity purification with mass spectrometry; HeLa cells over-expressing FLAG-LRP16, VP16 (50 μM, 30 min); IP with anti-FLAG agarose, elution with 3×FLAG peptide, SDS-PAGE, silver staining, visible bands excised; FLAG vector as control

Substance: IKKγ (endogenous) (from UniProt Q9Y6K9 1-419)
- binding: binds

Substance: PARP1 (endogenous) (from UniProt P09874 1-1014)
- binding: binds

These are yes or no findings as the source states them, for the method shown. In cells and extracts the contact can be indirect. Here binding means that the protein was enriched with, or labelled near, the bait; the list need not be complete.
